# Experimental data taken from article PMC9078569, “Understanding the inhibitory mechanism of tea polyphenols against tyrosinase using fluorescence spectroscopy, cyclic voltammetry, oximetry, and molecular simulations” (RSC Advances, 2018).
# System: Tyrosinase (TYR, EC1.14.18.1) from mushroom
# Test: Cyclic voltammetry of TPs on glassy carbon electrode modified by MWCNT and tyrosinase
# Details: CV, 50 mV s^−1, pH 6.5 phosphate buffer
row,SMILES,first oxidation peak potential (ring B) [V]
1,"Oc1cc(O)c2c(c1)OC(c1ccc(O)c(O)c1)C(O)C2 (single isomer, unassigned; (+)) [Catechin, (+)-catechin]",0.26
2,"O=C(OC1Cc2c(O)cc(O)cc2OC1c1ccc(O)c(O)c1)c1cc(O)c(O)c(O)c1 (single isomer, unassigned; (-)) [ECG, (−)-epicatechin gallate]",0.27
3,"O=C(OC1Cc2c(O)cc(O)cc2OC1c1cc(O)c(O)c(O)c1)c1cc(O)c(O)c(O)c1 (single isomer, unassigned; (-)) [EGCG, (−)-epigallocatechin-3-O-gallate]",0.21
